The supplement of paper PMC12819154, “High-throughput peptide-centric local stability assay extends protein–ligand identification to membrane proteins, tissues and bacteria” (Nature Structural & Molecular Biology, 2025)
This is one part of the list. Most entries show no effect beyond the scatter of the controls.

Amino acid sequences for entries named in this document (tags omitted). A change or cut given only in a name is not applied to a line headed by its entry.
UniProt Q6FI81: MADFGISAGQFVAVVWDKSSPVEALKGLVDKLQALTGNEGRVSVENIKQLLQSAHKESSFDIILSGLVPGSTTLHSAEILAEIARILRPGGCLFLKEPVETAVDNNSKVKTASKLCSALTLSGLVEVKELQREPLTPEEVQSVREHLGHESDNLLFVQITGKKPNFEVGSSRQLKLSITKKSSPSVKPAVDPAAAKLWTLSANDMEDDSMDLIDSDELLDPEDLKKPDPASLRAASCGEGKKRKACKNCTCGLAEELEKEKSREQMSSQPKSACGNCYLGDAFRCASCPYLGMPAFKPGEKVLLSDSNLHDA
UniProt Q5XG87: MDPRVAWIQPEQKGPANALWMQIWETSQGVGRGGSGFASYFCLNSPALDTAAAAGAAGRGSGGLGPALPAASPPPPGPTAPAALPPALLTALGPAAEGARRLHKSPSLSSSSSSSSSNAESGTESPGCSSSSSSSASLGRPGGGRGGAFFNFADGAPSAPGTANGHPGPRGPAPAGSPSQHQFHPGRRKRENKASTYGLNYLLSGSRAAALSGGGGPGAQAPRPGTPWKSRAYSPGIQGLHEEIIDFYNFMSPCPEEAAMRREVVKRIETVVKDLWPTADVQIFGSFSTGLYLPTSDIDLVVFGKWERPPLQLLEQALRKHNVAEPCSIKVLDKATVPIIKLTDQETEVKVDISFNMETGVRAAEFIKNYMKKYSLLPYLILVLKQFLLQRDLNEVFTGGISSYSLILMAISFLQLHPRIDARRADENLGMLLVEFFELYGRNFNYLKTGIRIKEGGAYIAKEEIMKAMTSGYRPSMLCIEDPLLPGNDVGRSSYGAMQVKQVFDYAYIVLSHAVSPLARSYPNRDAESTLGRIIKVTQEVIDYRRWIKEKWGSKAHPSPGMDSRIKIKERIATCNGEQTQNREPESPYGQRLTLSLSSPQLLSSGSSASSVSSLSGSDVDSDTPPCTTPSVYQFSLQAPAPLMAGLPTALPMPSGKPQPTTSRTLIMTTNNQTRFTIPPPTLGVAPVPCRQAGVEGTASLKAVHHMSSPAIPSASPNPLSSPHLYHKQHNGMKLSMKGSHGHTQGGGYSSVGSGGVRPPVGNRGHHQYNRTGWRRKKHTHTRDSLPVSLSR
UniProt Q5W0V3: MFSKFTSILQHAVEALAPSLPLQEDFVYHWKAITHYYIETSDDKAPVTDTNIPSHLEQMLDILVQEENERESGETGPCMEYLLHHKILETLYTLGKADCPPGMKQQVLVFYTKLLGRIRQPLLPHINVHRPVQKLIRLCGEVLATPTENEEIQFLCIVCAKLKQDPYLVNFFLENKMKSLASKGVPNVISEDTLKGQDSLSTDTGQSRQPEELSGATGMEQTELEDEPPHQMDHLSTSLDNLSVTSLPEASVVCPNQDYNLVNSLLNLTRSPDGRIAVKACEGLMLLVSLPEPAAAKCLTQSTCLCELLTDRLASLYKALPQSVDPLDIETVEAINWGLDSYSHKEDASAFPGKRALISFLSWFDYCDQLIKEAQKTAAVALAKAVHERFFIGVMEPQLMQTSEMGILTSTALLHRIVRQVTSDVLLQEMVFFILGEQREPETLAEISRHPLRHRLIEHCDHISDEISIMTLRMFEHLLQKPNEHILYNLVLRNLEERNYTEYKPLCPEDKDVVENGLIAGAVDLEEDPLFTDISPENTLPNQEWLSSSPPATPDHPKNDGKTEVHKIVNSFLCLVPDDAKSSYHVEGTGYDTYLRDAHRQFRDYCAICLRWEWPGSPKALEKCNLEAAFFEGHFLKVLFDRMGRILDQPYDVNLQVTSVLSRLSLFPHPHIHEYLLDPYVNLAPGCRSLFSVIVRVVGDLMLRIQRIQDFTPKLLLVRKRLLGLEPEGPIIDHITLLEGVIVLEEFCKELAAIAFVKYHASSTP
UniProt Q6P158: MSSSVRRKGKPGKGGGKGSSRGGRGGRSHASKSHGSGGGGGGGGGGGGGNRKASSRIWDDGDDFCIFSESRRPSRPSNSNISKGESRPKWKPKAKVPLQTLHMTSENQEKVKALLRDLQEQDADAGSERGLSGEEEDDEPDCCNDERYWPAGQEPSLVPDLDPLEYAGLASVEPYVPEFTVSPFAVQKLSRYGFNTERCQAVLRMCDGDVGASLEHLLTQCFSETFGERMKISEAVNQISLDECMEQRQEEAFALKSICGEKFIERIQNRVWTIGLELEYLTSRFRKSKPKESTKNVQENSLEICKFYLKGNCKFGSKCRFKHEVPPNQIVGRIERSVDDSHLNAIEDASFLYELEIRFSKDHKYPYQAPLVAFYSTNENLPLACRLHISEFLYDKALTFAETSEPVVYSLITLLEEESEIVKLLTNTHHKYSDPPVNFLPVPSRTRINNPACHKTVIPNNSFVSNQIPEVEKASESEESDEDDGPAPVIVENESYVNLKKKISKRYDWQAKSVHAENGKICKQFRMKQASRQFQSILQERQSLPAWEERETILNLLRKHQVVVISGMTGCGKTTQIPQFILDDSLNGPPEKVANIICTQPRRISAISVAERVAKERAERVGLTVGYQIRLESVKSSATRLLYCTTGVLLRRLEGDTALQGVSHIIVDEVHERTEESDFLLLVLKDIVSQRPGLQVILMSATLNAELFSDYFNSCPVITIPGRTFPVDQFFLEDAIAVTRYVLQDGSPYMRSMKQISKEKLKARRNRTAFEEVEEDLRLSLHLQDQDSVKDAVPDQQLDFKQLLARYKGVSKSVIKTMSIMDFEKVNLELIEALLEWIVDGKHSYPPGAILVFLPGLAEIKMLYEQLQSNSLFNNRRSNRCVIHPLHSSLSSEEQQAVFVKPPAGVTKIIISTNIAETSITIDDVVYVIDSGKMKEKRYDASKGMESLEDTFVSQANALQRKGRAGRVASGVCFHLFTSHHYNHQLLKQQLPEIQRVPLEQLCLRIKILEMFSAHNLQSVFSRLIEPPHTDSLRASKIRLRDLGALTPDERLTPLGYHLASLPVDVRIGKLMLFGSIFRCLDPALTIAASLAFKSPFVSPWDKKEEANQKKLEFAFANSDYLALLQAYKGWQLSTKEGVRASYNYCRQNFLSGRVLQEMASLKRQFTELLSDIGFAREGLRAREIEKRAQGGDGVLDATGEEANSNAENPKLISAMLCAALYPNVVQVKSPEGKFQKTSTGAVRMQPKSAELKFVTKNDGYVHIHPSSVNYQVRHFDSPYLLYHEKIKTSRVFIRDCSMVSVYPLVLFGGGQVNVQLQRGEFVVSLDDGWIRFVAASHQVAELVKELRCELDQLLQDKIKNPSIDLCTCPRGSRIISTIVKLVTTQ
UniProt Q6IN84: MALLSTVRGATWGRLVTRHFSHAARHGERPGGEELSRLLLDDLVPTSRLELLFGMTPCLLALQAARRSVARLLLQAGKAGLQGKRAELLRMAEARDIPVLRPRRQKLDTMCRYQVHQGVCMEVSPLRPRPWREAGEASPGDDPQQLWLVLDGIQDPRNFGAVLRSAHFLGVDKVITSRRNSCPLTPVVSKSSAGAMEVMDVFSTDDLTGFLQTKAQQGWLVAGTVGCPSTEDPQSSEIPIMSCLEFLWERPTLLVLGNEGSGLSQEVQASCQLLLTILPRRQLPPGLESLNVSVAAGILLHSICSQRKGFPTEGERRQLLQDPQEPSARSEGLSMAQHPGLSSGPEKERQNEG
UniProt Q6P0N0: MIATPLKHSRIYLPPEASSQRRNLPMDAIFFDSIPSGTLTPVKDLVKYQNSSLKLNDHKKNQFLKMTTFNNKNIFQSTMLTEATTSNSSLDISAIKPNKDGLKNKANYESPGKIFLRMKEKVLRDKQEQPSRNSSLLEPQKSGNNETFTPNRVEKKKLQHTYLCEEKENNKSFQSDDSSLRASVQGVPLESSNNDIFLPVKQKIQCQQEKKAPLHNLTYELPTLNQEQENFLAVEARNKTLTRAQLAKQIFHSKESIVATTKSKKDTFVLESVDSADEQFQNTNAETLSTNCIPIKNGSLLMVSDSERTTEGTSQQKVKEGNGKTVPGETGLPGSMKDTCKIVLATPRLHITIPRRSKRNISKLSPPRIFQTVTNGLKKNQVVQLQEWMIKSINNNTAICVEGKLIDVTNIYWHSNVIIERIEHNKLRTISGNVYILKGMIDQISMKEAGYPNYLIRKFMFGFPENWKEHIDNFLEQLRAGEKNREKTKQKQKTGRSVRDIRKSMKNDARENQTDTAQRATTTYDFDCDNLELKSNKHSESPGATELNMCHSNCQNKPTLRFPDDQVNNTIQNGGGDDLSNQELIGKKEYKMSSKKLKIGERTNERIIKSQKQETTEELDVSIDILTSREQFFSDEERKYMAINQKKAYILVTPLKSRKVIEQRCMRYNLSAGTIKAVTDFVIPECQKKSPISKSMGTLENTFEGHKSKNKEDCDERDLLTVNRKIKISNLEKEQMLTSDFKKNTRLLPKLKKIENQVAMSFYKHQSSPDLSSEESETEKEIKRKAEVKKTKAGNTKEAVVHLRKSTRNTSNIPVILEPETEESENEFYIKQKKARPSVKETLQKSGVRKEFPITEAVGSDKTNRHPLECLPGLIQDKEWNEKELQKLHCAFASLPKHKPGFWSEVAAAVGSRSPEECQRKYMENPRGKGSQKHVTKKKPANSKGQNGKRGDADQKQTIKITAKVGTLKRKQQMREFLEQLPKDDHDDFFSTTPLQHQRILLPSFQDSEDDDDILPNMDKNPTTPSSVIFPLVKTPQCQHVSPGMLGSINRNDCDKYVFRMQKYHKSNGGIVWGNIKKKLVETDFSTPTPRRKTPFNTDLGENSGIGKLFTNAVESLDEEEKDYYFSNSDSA
UniProt Q658Y4: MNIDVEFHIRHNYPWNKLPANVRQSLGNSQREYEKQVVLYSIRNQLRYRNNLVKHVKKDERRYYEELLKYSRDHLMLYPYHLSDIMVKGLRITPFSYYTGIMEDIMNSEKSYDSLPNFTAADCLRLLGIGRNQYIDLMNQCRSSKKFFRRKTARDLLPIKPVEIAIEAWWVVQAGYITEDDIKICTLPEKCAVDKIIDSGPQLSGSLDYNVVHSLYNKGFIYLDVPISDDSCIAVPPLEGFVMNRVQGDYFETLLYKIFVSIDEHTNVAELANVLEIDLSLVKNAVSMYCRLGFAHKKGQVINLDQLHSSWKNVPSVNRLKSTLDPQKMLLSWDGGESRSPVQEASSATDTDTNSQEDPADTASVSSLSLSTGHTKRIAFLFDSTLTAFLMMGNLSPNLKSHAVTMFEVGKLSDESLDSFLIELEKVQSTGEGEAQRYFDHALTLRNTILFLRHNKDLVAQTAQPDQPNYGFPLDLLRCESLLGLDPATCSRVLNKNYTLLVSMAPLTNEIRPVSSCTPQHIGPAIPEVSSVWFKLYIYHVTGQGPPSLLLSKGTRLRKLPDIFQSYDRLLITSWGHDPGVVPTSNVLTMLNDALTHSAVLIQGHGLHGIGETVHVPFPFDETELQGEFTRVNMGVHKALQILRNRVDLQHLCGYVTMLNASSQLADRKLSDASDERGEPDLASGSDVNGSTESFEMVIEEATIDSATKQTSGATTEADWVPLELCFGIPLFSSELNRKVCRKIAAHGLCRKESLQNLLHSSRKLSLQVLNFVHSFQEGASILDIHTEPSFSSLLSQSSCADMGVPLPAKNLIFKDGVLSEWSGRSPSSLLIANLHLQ
UniProt Q6S8J7: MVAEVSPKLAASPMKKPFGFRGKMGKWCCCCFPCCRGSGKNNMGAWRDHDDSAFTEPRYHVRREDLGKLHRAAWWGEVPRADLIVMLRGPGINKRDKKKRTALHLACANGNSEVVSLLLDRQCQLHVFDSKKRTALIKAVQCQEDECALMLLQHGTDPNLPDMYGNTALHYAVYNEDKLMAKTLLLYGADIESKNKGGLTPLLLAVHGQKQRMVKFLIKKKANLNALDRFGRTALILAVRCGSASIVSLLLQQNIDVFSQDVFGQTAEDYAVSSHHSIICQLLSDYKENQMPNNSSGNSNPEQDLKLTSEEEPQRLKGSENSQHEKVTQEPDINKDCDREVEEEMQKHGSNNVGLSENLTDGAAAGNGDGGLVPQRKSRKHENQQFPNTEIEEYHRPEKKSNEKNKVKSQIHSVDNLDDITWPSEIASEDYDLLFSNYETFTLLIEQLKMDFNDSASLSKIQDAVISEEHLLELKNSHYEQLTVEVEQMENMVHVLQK

compound: Cc1nc(Nc2ncc(C(=O)Nc3c(C)cccc3Cl)s2)cc(N2CCN(CCO)CC2)n1 [dasatinib]; test: log2 fold change of tryptic peptide abundance, ligand vs vehicle (limited proteolysis) (log2 ratio); higher = more trypsin-susceptible (destabilized); settings: ligand concentration: 5 uM; sample: K562 cleared lysate

**Q.** With “CIAPIN1 (peptide sequence: EPVETAVDNNSK, peptide start residue: 97) (UniProt Q6FI81)” as the target, how does the log2 fold change read?
**A.** 0.382

**Q.** How did the log2 fold change turn out when “UniProt Q6ICG6 (peptide sequence: NNRPAFFSPSLKR, peptide start residue: 297)” was run?
**A.** 0.404

**Q.** For “UniProt Q5XG87 (peptide sequence: AAALSGGGGPGAQAPRPGTPWK, peptide start residue: 188)”, which log2 fold change is on record?
**A.** 0.308

**Q.** How did the log2 fold change turn out when “FAM160B1 (peptide sequence: SSYHVEGTGYDTYLR, peptide start residue: 582) (UniProt Q5W0V3)” was run?
**A.** -0.196

**Q.** For “DHX57 (peptide sequence: FVAASHQVAELVK, peptide start residue: 1333) (UniProt Q6P158)”, which log2 fold change is on record?
**A.** -0.333

**Q.** Which log2 fold change does the source give for “MRM1 (peptide sequence: SEGLSMAQHPGLSSGPEK, peptide start residue: 330) (UniProt Q6IN84)” here?
**A.** 0.0905

**Q.** For “C14ORF106 (peptide sequence: SFQSDDSSLR, peptide start residue: 172) (UniProt Q6P0N0)”, which log2 fold change is on record?
**A.** 0.662

**Q.** Which log2 fold change does the source give for “FAM91A1 (peptide sequence: LKSTLDPQK, peptide start residue: 320) (UniProt Q658Y4)” here?
**A.** -0.487

**Q.** For “UniProt Q6S8J7 (peptide sequence: ANLNALDR, peptide start residue: 259)”, which log2 fold change is on record?
**A.** -0.125

**Q.** With “UniProt Q5VWI1 (peptide sequence: GVSAFSTWEKELHK, peptide start residue: 674)” as the target, how does the log2 fold change read?
**A.** 0.19
